Results taken from patent publication US10722484B2, “Methods of cancer treatment” (K-Gen, Inc., priority 2016, dated 2020).

Test system: A549 lung cancer cell line
Assay: Combination viability/proliferation assays (384-well IC50 ratio, 96-well MacSynergy II)
Assay type: cell-based
Description: A 96-well MacSynergy II format for combination test was also used. […] The analysis was done with the SQRT(Data) scale and the four parameter Hill curve was fitted using XLfit5.1 (the MacSynergy II Excel Spreadsheet) for the inhibition data. Synergy (positive number) or Antagonism (negative number) volumes were calculated. […] Three-dimensional MacSynergy II graphs were generated where positive values indicated synergism and negative values indicated antagonism.

**Q.** For `O=C(CCCCCCC(=O)Nc1ccccc1)NO` [SAHA, suberoylanilide hydroxamic acid], which “effect in combination with K101A or K102 in inhibiting the growth of A549 cells” value is on record?
**A.** minor but significant antagonistic effect
